# Measured values from PubChem BioAssay AID1439 (NMMLSC, 2008).
# The chains behind the UniProt entries cited, without tags or fusion partners.
# UniProt P09471, whole entry, looked up: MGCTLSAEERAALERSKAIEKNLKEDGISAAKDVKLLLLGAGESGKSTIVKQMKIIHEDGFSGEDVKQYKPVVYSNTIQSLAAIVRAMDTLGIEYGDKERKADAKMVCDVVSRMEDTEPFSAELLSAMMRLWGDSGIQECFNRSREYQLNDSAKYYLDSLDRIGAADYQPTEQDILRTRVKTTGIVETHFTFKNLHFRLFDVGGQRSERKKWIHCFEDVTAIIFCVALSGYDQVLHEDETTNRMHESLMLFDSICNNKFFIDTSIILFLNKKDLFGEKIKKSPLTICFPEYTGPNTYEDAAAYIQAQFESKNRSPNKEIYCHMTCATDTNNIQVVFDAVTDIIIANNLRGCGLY
# Screen size: about 220,000 compounds; about 770 (0.35%) were called active. This list was built around the results that the source calls inconclusive (neither active nor inactive); the mix of calls is not that of the screen. No stated cut-off is given here; in the data, active means binding response below about 49% or above about 150%; inconclusive means no clear call, values can overlap the other calls; inactive means in between.
# Target: Guanine nucleotide-binding protein G(o) subunit alpha (Homo sapiens) (UniProt P09471)
# Experiment: RGS7-Galphao binding modulators, primary screen, biochemical, multiplexed bead flow cytometry (AID 1439);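 further: fluorescent Galphao held in activated GDP-AlF4 state binding bead-coupled RGS7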
# Settings: at 10 µM, actives lie on both sides
row,SMILES,binding response (% of control)
1,CN1CCc2nc(NC(=O)COc3ccc(C#N)cc3)sc2C1,inactive: 99%
2,COc1cc(/C=N/n2c(-c3ccccc3)n[nH]c2=S)cc(OC)c1O,inconclusive: 123%
3,Cc1ccc(NC(CC(=O)c2ccccc2)C(=O)O)cc1Cl (configuration not stated),inconclusive: 106%
4,N/C(Cn1cncn1)=N\NC(=O)C(=O)Nc1ccc(Cl)cc1Cl,inconclusive: 101%
5,COc1ccccc1C(=O)Nc1nc2cc3c(cc2s1)OCO3,inconclusive: 82.3%
6,Cc1nc2c(-c3ccc(Cl)cc3)cnn2c2c1CCC2,inactive: 98%
7,CCN(CC)C(=O)C12CC3CC(CC(Br)(C3)C1)C2,inactive: 96.6%
8,CC(Nc1n[nH]c(=O)[nH]c1=O)C(=O)N/N=C/c1ccccc1 (configuration not stated),inconclusive: 73.1%
9,O=C1c2ccccc2C(=O)N1CCN1CCOCC1,active: 259% [activator]
10,CC(=O)Nc1ccccc1NC(=O)C/C(C)=N/NC(=O)c1ccncc1,inconclusive: 87.2%
11,S=C1NCN(C2CCCCC2)CN1c1ccccc1,inconclusive: 2.27%
12,CCOC(=O)N1CCC(NC(=O)CCCC(=O)O)CC1,inconclusive: 112%
13,CSCCC(NC(N)=O)C(=O)Nc1cccc(S(=O)(=O)N2CCOCC2)c1 (configuration not stated),inconclusive: 119%
14,CCSc1nc2ccccc2c(=O)n1CCc1ccc(OC)c(OC)c1,inconclusive: 110%
15,OC1(c2ccc(OC(F)F)cc2)CSC(=Nc2cccnc2)N1Cc1ccco1 (configuration not stated),inactive: 100%
16,CC(C)(C)NC(=O)CN(Cc1ccc(F)cc1)C(=O)Cn1nnc(-c2ccc(F)cc2)n1,inactive: 98.2%
17,Cc1cc(Oc2ccccc2)nc(-c2ccccc2)n1,inactive: 99.6%
18,O=C(c1ccccc1)N1C(=O)C(c2ccccc2)Oc2ccccc21 (configuration not stated),inconclusive: 97.4%
19,Cc1cccc(CNc2ccc(C(CC(N)=O)NC(=O)c3ccccc3)cc2[N+](=O)[O-])c1 (configuration not stated),inconclusive: 131%
20,COC1CCN(C(=O)CC2C(=O)NCCN2CC(C)(C)C)CC1 (configuration not stated),active: 2.08%
21,CCCCCCN(C(=O)CCCCCN1C(=O)NC(c2ccc(-c3ccccc3)cc2)C(C(=O)OCc2ccccc2)=C1C)C(C(=O)NCCCC)c1ccc(OCC(=O)OC)c(C(=O)OC)c1 (configuration not stated),inconclusive: 99.1%
22,O=C(c1ccccc1)N1CCCC(C(=O)N2CCN(c3ccccc3)CC2)C1 (configuration not stated),inconclusive: 90.9%
23,CSc1nc2c(C)c(C)c(C)c(C)c2[nH]1,inconclusive: 61%

row,SMILES,binding response (% of control)
1,CCCCCC(=O)NC(=S)Nc1cccc(-c2nc3ncccc3o2)c1,inconclusive: 77%
2,COc1cc(C(=O)N2CCN(C(=O)CC(C)C)CC2)cc(OC)c1OC,inactive: 131%
3,CC1CCCC(C)N1C(=S)SCC(=O)O (configuration not stated),inconclusive: 97%
4,Oc1ccc(C=NC2CCCCC2)cc1,inconclusive: 102%
5,Clc1cnc2nc(SC/C=C/c3ccccc3)[nH]c2c1,inconclusive: 87.3%
6,COc1ccccc1CNC(=O)c1n[nH]c2ccccc12,inconclusive: 61.6%
7,OCCC1CN(Cc2nc3c(s2)CCCC3)CCN1CCc1ccccc1 (configuration not stated),inactive: 103%
8,CCN(CC)C(=O)c1ccc2c(c1)nnn2C,inactive: 103%
9,CCNC(=O)C1CC(=O)N(CCCc2ccccc2)C(=Nc2ccccc2)S1 (configuration not stated),inconclusive: 127%
10,CC(=O)c1ccc2c(c1)OCCOCCOCCOCCOCCO2,inconclusive: 42.1%
11,O=C(c1ccc(NC(=O)C2(c3ccccc3)CCCC2)cc1)N1CCOCC1,inconclusive: 121%
12,NNC(=O)c1sc(-c2ccccc2)cc1N,inconclusive: 86.5%
13,NC(=O)c1ccccc1NC(=O)COc1ccc(Cl)cc1,inconclusive: 156%
14,COCc1cc(C)nc(N/N=C/c2ccc(-c3ccc(Cl)cc3[N+](=O)[O-])o2)c1C#N,inconclusive: 84.3%
15,COc1cc(/C=C2\N=C(c3ccccc3)NNC2=O)cc(OC)c1OC,inconclusive: 175%
16,CCC(C)(C)NC(=O)Cc1ccc(Cl)cc1,inconclusive: 94.7%
17,COc1ccc(C(C(=O)NCCC(C)C)N(CCN2CCOCC2)C(=O)Cn2nnc3ccccc32)c(OC)c1 (configuration not stated),inactive: 100%
18,Cc1ccc(N2C(=O)CS/C2=N\C(=S)Nc2ccccc2)cc1,inconclusive: 118%
19,CC(C)[C@H](NC(=O)c1ccccc1)C(=O)OCC(=O)N1CC2(C)CC1CC(C)(C)C2 (some centres not stated),inactive: 99.1%
20,Cc1ccc(NC(=O)NC2CCCCC2)cc1S(=O)(=O)N1CCOCC1,inconclusive: 88.7%
21,O=C(Nc1cc(S(=O)(=O)N2CCCCC2)ccc1N1CCCCC1)C1CC1,inconclusive: 93.4%
22,NC(=O)CCCSc1nc2ccccc2[nH]1,inconclusive: 116%
23,CC1=C(C(=O)NCc2ccc(Cl)cc2)C2(CCC(C)CC2)OC1=O (configuration not stated),inconclusive: 84%

# Already shown: an excerpt of the list.
row,SMILES,binding response (% of control)
21,O=C(Nc1cc(S(=O)(=O)N2CCCCC2)ccc1N1CCCCC1)C1CC1,inconclusive: 93.4%
22,NC(=O)CCCSc1nc2ccccc2[nH]1,inconclusive: 116%

# Continuation:

row,SMILES,binding response (% of control)
1,Cc1ccc2c(c1)C1CN(C)CCC1N2C(=S)Nc1ccc(OC(F)F)cc1 (configuration not stated),inconclusive: 106%
2,Cc1cc(C)nc(Oc2ccc(Br)cc2)n1,inconclusive: 116%
3,Cc1ccc2sc(=O)[nH]c2c1,inconclusive: 110%
4,C[C@H](NC(N)=O)C(=O)Nc1ccc(OCc2ccccc2)cc1,inconclusive: 96%
5,CC(=O)Nc1ccc(C(=O)Nc2nc(-c3ccccn3)cs2)cc1,inconclusive: 88.8%
6,Nc1c(C(=O)C2CC2)sc2nc(-c3ccccc3)cc(C(F)(F)F)c12,inactive: 91.8%
7,C=CCN(c1ccccc1)S(=O)(=O)c1ccc(Cl)c(C(=O)OCC(=O)NCCCN2CCCC2=O)c1,inconclusive: 89.2%
8,CC1(C(=O)NNC(=O)C2CCCCC2)CC1(Cl)Cl (configuration not stated),inconclusive: 125%
9,CSc1ccc(/C=C(\NC(=O)c2ccc(C)cc2)C(=O)NN)cc1,inconclusive: 101%
10,N#CCCN(Cc1ccncc1)C(=S)NC1CC2C=CC1C2 (configuration not stated),inconclusive: 121%
11,COC(=O)c1cc(S(=O)(=O)N(C)C2CCCCC2)oc1C,inconclusive: 85.7%
12,C/C(Cn1nnc([N+](=O)[O-])n1)=N\NC(=O)c1ccc(O)cc1,inconclusive: 101%
13,O=C(NCC1(c2ccccc2)CCCC1)C(=O)N1CCOCC1,inactive: 81%
14,Cc1cc(C)nc(NS(=O)(=O)c2ccc(NS(=O)(=O)c3ccsc3)cc2)n1,inconclusive: 87.1%
15,CCn1cc(C(=O)NP(=O)(Nc2ccc(C)cc2)Nc2ccc(C)cc2)c2ccccc21,inconclusive: 176%
16,Cc1ccccc1OCCn1cc(/C(N)=N/O)c2ccccc21,inactive: 104%
17,O=C(O)c1ccc(OCC(O)Cn2c3ccccc3c3ccccc32)cc1 (configuration not stated),inconclusive: 315%
18,CCOC(=O)C1C(c2ccc(O)c(O)c2)NC(=S)NC1(O)C(F)(F)F (configuration not stated),active: 34.5%
19,COc1ccc(N2CCN(C(c3ccc4ncccc4c3)c3nnnn3C(C)C)CC2)cc1 (configuration not stated),inconclusive: 115%
20,O=C(N/N=C/c1ccc(Br)cc1)c1ccccc1-n1cccc1,inactive: 103%
21,C=CCNC(=S)NNC(=O)C(CC(C)C)CC(C)O (configuration not stated),inconclusive: 122%
22,CC(C)Oc1cccc(C(=O)C2CCCN(Cc3cccn3-c3ccccn3)C2)c1 (configuration not stated),inconclusive: 103%
23,Cc1ccccc1-n1c(C)c(C#N)c(=O)c(-[n+]2ccccc2)c1[S-],inconclusive: 105%

row,SMILES,binding response (% of control)
1,O=C(CN1CCOCC1)Nc1scc2c1c(=O)oc1ccccc12,inconclusive: 92%
2,O=C(O)CC(SCC(=O)NC1CCCc2ccccc21)C(=O)O (configuration not stated),inconclusive: 101%
3,COc1ccc(NC(=O)CSc2nc3ccc(OC)cc3[nH]2)cc1,inconclusive: 107%
4,CC(C)Cc1ccc(C(C)C(=O)Nc2ncccn2)cc1 (configuration not stated),inconclusive: 110%
5,COc1ccc(N2C(=O)C(CC(=O)Nc3ccccc3)N(Cc3ccccn3)C2=S)cc1 (configuration not stated),inactive: 102%
6,CCOc1ccc(CC2c3cc(OCC)c(OCC)cc3CCN2C(=O)CN2CCN(C)CC2)cc1OCC (configuration not stated),inconclusive: 76.5%
7,COc1ccc(/C=C2/C(=N)N3C(=NC2=O)Sc2cc(S(C)(=O)=O)ccc23)cc1OC,inconclusive: 74.1%
8,O=C(c1nnc(-c2ccccc2)o1)C1CC1,inconclusive: 103%
9,COc1ccc2[nH]c(=O)c(CN(C(=O)c3cccnc3)c3cc(C)ccc3C)cc2c1,inconclusive: 161%
10,Cc1ccc(S(=O)(=O)N2CCOCC2)cc1C(=O)NC(=S)N1CC(C)OC(C)C1 (configuration not stated),inconclusive: 71.8%
11,O=C(CNC(=O)C12CC3CC(CC(C3)C1)C2)OCc1cc(=O)n2cc(Br)ccc2n1,inconclusive: 98.9%
12,COc1ccc(-c2[nH]ncc2CN2CCC(N3CCSCC3)CC2)cc1F,inactive: 85.3%
13,CSC(=S)N(C)C1CCS(=O)(=O)C1 (configuration not stated),inactive: 85.9%
14,COc1cc(NC(=O)CN2C(=O)C(c3ccccc3)=NC2(C)C)cc(OC)c1,inconclusive: 122%
15,Cc1nc2c(C)c(C)c(C)c(C)c2nc1C,inconclusive: 52%
16,Cc1ccccc1Nc1c(-c2ccc(N3CCOCC3)cc2)nc2cnccn12,inconclusive: 90.4%
17,O=[N+]([O-])c1cccc(-n2nnnc2CNCc2ccccc2)c1,inconclusive: 255%
18,Cc1coc2cc3oc(=O)c(CCC(=O)O)c(C)c3cc12,inconclusive: 75.3%
19,COc1ccc(OC)c(S(=O)(=O)N2CCC(C(=O)N3CCc4ccccc4C3)CC2)c1,inactive: 98.6%
20,CCCS(=O)(=O)c1cscc1NC(=O)c1c(-c2c(F)cccc2Cl)noc1C,inconclusive: -4.09%
21,Nc1ccccc1SCC(=O)Nc1nccs1,inactive: 95.1%
22,CC(C)(C)n1nc(C2CC2)cc1NC(=O)Nc1ccc(Cl)cc1,inconclusive: 101%
23,N#C/C(=C\c1ccccc1)C(=O)NCCN1CCOCC1,inconclusive: 87.4%

# Of the compounds above, 22 contain a halogen:
row,SMILES,binding response (% of control)
3,Cc1ccc(NC(CC(=O)c2ccccc2)C(=O)O)cc1Cl (configuration not stated),inconclusive: 106%
4,N/C(Cn1cncn1)=N\NC(=O)C(=O)Nc1ccc(Cl)cc1Cl,inconclusive: 101%
6,Cc1nc2c(-c3ccc(Cl)cc3)cnn2c2c1CCC2,inactive: 98%
7,CCN(CC)C(=O)C12CC3CC(CC(Br)(C3)C1)C2,inactive: 96.6%
15,OC1(c2ccc(OC(F)F)cc2)CSC(=Nc2cccnc2)N1Cc1ccco1 (configuration not stated),inactive: 100%
16,CC(C)(C)NC(=O)CN(Cc1ccc(F)cc1)C(=O)Cn1nnc(-c2ccc(F)cc2)n1,inactive: 98.2%
5,Clc1cnc2nc(SC/C=C/c3ccccc3)[nH]c2c1,inconclusive: 87.3%
13,NC(=O)c1ccccc1NC(=O)COc1ccc(Cl)cc1,inconclusive: 156%
14,COCc1cc(C)nc(N/N=C/c2ccc(-c3ccc(Cl)cc3[N+](=O)[O-])o2)c1C#N,inconclusive: 84.3%
16,CCC(C)(C)NC(=O)Cc1ccc(Cl)cc1,inconclusive: 94.7%
23,CC1=C(C(=O)NCc2ccc(Cl)cc2)C2(CCC(C)CC2)OC1=O (configuration not stated),inconclusive: 84%
1,Cc1ccc2c(c1)C1CN(C)CCC1N2C(=S)Nc1ccc(OC(F)F)cc1 (configuration not stated),inconclusive: 106%
2,Cc1cc(C)nc(Oc2ccc(Br)cc2)n1,inconclusive: 116%
6,Nc1c(C(=O)C2CC2)sc2nc(-c3ccccc3)cc(C(F)(F)F)c12,inactive: 91.8%
7,C=CCN(c1ccccc1)S(=O)(=O)c1ccc(Cl)c(C(=O)OCC(=O)NCCCN2CCCC2=O)c1,inconclusive: 89.2%
8,CC1(C(=O)NNC(=O)C2CCCCC2)CC1(Cl)Cl (configuration not stated),inconclusive: 125%
18,CCOC(=O)C1C(c2ccc(O)c(O)c2)NC(=S)NC1(O)C(F)(F)F (configuration not stated),active: 34.5%
20,O=C(N/N=C/c1ccc(Br)cc1)c1ccccc1-n1cccc1,inactive: 103%
11,O=C(CNC(=O)C12CC3CC(CC(C3)C1)C2)OCc1cc(=O)n2cc(Br)ccc2n1,inconclusive: 98.9%
12,COc1ccc(-c2[nH]ncc2CN2CCC(N3CCSCC3)CC2)cc1F,inactive: 85.3%
20,CCCS(=O)(=O)c1cscc1NC(=O)c1c(-c2c(F)cccc2Cl)noc1C,inconclusive: -4.09%
22,CC(C)(C)n1nc(C2CC2)cc1NC(=O)Nc1ccc(Cl)cc1,inconclusive: 101%
